Measurements reported in article PMC8443046.
Results are given in words; binding and its absence hold for the method and conditions named. In cells and extracts the contact can be indirect. Binding calls can cover weak binding; strength is not graded here.

Chains of the proteins cited; added tags and fusions are not shown. Lines headed by an entry give the natural chain unless they say otherwise; changes in a name come on top.
UniProt A0ABF7PFJ0: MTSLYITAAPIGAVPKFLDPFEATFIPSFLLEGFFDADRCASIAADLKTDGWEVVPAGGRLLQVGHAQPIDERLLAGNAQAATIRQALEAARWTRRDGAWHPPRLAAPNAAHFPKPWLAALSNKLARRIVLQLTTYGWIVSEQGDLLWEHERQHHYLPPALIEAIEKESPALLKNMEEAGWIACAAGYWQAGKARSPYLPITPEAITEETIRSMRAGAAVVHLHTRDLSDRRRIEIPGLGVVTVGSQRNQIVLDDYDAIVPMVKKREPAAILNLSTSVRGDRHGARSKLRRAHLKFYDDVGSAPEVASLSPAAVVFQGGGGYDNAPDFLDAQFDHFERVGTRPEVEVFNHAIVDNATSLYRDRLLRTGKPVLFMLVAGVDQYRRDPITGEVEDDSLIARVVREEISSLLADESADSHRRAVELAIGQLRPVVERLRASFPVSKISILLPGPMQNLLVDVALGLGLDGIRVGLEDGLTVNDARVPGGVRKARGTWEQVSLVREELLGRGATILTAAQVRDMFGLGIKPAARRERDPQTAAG

Molecular target: ATP-dependent Lon protease of Burkholderia glumae BGR1 (bglu_1g13520) (Burkholderia glumae BGR1 (endogenous in B. glumae))
Experiment: co-IP; Pierce Direct IP kit; anti-ObcB or anti-Lon antibody (10 ug) coupled to AminoLink Plus resin; lysate of B. glumae BGR1 wild type (early stationary phase, 1 mg protein), 4°C, 24 h; western blot with anti-ObcA or anti-ObcB

ObcA, oxalate biosynthetic enzyme of Burkholderia glumae (bglu_2g18790) (from UniProt A0ABF7PFJ0)
binding: binds
